Measured values published in PubChem BioAssay AID2685 (National Center for Advancing Translational Sciences (NCATS), 2010).
The campaign covered roughly 320,000 compounds. About 2,100 (0.66%) were called active. Inconclusive results, whose numbers are uncertain, are shown with a selection of clear calls. Calls come from the whole dose curve; as a rule, active = well fitted inhibition curve with a large enough effect in the signal ratio, with a control signal flat (not every such curve was filed as active); inconclusive = small, poorly fitted or top-dose-only effect, or effect the other way, or a change in a side signal; inactive = flat fitted curve, though single readings scatter; the % refers to the signal ratio. Potencies beside an inconclusive call are fits to weak or partial responses and may not hold up.

Assay: qHTS Assay for Lipid Storage Modulators in Drosophila S3 Cells
Conditions: BODIPY lipid droplet fluorescence, 18-24 h, cells fed with added oleic acid; lipid storage change, negative = inhibition: at 46.1 µM (top of the series) unless noted
Summary of the method: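 Drosophila S3 cells got compounds at several concentrations plus oleic acid (400 uM solution). Laser-scanning cytometry with 488 nm excitation read lipid droplets at 500-530 nm and cells at 575-640 nm. Percent activity was relative to 20 uM Triacsin C.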
% is set by controls: 0 for no effect and ±100 for the full control effect; potency is the fitted concentration of half-maximal effect.

SMILES	lipid storage change, negative = inhibition	Potency
O=C(Nc1cc(S(=O)(=O)N2CCCCC2)ccc1N1CCOCC1)c1ccc(C(F)(F)F)cc1	inconclusive: 0.361%	–
O=C1CCCC2=C1C1(CCCCC1)N=C(Nc1nc3ccccc3s1)N2	–	inconclusive: 0.58 µM [activator, full curve]
COc1cc(C(=O)O/N=C(\N)c2ccc([N+](=O)[O-])cc2)cc(OC)c1OC	inconclusive: 20.1%	–
CC(=O)NC(=O)NC1OC(=O)C(Cl)=C1Cl (centres undefined)	inconclusive: -9.48%	–
CC(=O)c1ccc(N2CCN(S(=O)(=O)c3cn(C)cn3)CC2)cc1	inconclusive: -6.11%	–
Fc1ccc(CCN2CCN=C2Nc2ccccc2)cc1	–	inconclusive: 0.0052 µM [activator, full curve, poor fit]
COc1cc(C(=S)N2CCOCC2)ccc1O	inconclusive: 18.2%	–
COc1ccc(NC(=O)c2cc3ccccc3cc2O)cc1	–	inconclusive: 20.6 µM [falling, single point]
COC(=O)c1cc(NC(=O)c2c(Cl)cnn2C)cc(C(=O)OC)c1	–	inconclusive: 29.1 µM [rising, single point]
CC(Oc1ccc(Br)cc1Br)C(=O)Nc1cccnc1Cl (centres undefined)	–	inconclusive: 29.1 µM [falling, single point]
O=C1N(Cc2ccccc2)c2ccc(Cl)cc2C12OCCO2	inconclusive: 20.8%	–
CS(=O)(=O)c1ccc2nc(NC3(C(F)(F)F)N=C4SCCN4C3=O)sc2c1 (centres undefined)	inconclusive: 3.67%	–
COc1ccc(Cl)cc1NC(=O)CSc1nc2sccc2c(=O)[nH]1	inconclusive: 3.42%	–
CCOC(=O)c1cc(-c2ccccc2)sc1NC(=O)c1cc(OC)c(OC)c(OC)c1	inconclusive: 6.71%	–
O=C(/C=C/c1ccco1)Nc1cc(Cl)ccc1C(=O)O	inconclusive: 22.6%	–
O=C(N/C(=C\c1ccc(Br)cc1)C(=O)N1CCOCC1)c1ccc([N+](=O)[O-])cc1	inconclusive: 11.3%	–
CCCc1cc(C(=O)N2CCCC(N3CCN(c4ccccc4F)CC3)C2)n(C)n1 (centres undefined)	–	inconclusive: 29.1 µM [falling, single point]
CN1CCN(/C=N/c2c(C#N)cnn2Cc2ccccc2)CC1	inconclusive: 22.7%	–
CC(C)(C)C(=O)NCCCc1ccccc1	inconclusive: -13.9%	–
CS(=O)(=O)c1ccccc1-c1nnc(NC(=O)C2=COCCO2)o1	inconclusive	–
CC(=O)N1CCN(S(=O)(=O)c2c(C)n(C)c(=O)n(C)c2=O)CC1	inactive: -16.5%	–
CC1CN(C(=S)SCC(=O)c2ccccc2)CC(C)O1 (centres undefined)	inconclusive: -20.8%	–
Cc1ccc(S(=O)(=O)N[C@H](C(=O)OCn2nnc3ccccc3c2=O)C(C)C)cc1	–	inconclusive: 29.1 µM [rising, single point]
Nc1nnnn1/N=C/c1ccccc1OCc1ccc(Cl)cc1Cl	–	inconclusive: 6.51 µM [activator, partial curve]
CCn1c(SCC(=O)Nc2ccc(C)cc2)nc(O)cc1=O	inconclusive: -16.2%	–
COCCCNC(=O)/C(C#N)=c1\s/c(=C\c2ccccc2OC(F)F)c(=O)n1CCCOC	inconclusive: -13.7%	–
CCn1nc(NC(=O)c2cccs2)c2cc3ccccc3nc21	–	inconclusive: 18.4 µM [activator, partial curve]

Arranged by count of non-hydrogen atoms (falling): some entries from above.
SMILES	lipid storage change, negative = inhibition	Potency
COc1cc(C(=O)O/N=C(\N)c2ccc([N+](=O)[O-])cc2)cc(OC)c1OC	inconclusive: 20.1%	–
O=C1CCCC2=C1C1(CCCCC1)N=C(Nc1nc3ccccc3s1)N2	–	inconclusive: 0.58 µM [activator, full curve]
CC(=O)N1CCN(S(=O)(=O)c2c(C)n(C)c(=O)n(C)c2=O)CC1	inactive: -16.5%	–

Next results.

SMILES	lipid storage change, negative = inhibition	Potency
OCC1(CCOc2ccccc2)CCN(Cc2cn[nH]c2-c2ccccc2)CC1	inconclusive: 25.9%	–
COc1ccc(C(NC(=O)C2CCCCC2)c2c(O)ccc3ccccc23)cc1 (centres undefined)	–	inconclusive: 0.461 µM [falling, full curve, poor fit]
Cc1ccc(NC(=O)OCc2cc(-c3ccccc3)on2)cc1	inactive: 23.7%	–
CC#CC#Cc1cccc(=O)o1	–	inconclusive: 0.366 µM [falling, partial curve]
O=C(CN(C(=O)c1cccc([N+](=O)[O-])c1)C1CCCCC1)Nc1ccc(Cl)c([N+](=O)[O-])c1	inconclusive: 21.6%	–
CN=C1SC(CC(=O)Nc2ccc(F)cc2F)C(=O)N1/N=C(\C)c1cccc(OCC(=O)O)c1 (centres undefined)	inactive: -8.34%	–
S=C(NCCC(c1ccccc1)c1ccccc1)Nc1ccc(Cl)cc1	inconclusive: -116%	–
CCc1cc(C(=O)N(CC)CC(=O)Nc2ccc(OC)cc2)sc1C	–	inconclusive: 18.4 µM [falling, partial curve, poor fit]
COc1ccc2c(c1)c(C(=O)CN1CCN(C(=O)c3ccco3)CC1)c(C)n2C	inconclusive: 16.2%	–
CC(C)(C)NC(=S)N/N=C\c1ccc(-c2ccc([N+](=O)[O-])cc2)o1	inconclusive: -93%	–
CCOc1cc(C(=O)NC(C)CCc2ccccc2)cc(OCC)c1OCC (centres undefined)	inconclusive: 8.64%	–
CC1CCN(C(=O)COc2cccc3c2CCN(C)C3=O)CC1	–	inconclusive: 1.84 µM [falling, full curve, poor fit]
CC(C)C(=O)O/N=C1\CCS(=O)(=O)c2sccc21	inconclusive: 24.2%	–
CC/C(O)=C(/C#N)c1nnc2n1CCCCC2	inactive: 5.83%	–
Cc1c(NC(=O)c2ccc(Cl)s2)c(=O)n(-c2ccccc2)n1C	–	inconclusive: 1.64 µM [activator, full curve]
COC(=O)c1ccc(C(=O)OC)c(NS(=O)(=O)c2ccc(NC(C)=O)cc2)c1	–	inconclusive: 0.461 µM [falling, single point]
CCOC(=O)c1ccc(S(=O)(=O)N(CCO)Cc2cc3cc(OC)c(OC)cc3[nH]c2=O)cc1	–	inconclusive: 6.51 µM [falling, partial curve]
CCNc1ccc(C(=O)OCC(=O)c2cc(C)n(Cc3ccc4c(c3)OCO4)c2C)cc1[N+](=O)[O-]	inconclusive: 35.2%	–
COC(=O)c1cc(C(=O)OC)cc(-n2c(C)cc(C=O)c2C)c1	inconclusive: 61.4%	–
Cn1ncc2c(O/N=C(\N)c3ccc(C(C)(C)C)cc3)ncnc21	–	inconclusive: 29.1 µM [cytotoxic, single point]
COc1ccccc1CNC(=O)c1ccc(-c2ccccc2C(F)(F)F)o1	inconclusive: 28.8%	–
COc1ccc(OCc2nnc(SCC(=O)N3C(C)CCCC3C)o2)cc1 (centres undefined)	inconclusive: -73.1%	–
O=C(O)c1cc(N/N=C/c2ccc3c(c2)OCO3)ccc1Cl	–	inconclusive: 0.13 µM [cytotoxic, full curve, poor fit]
O=C(Cn1ccccc1=O)c1cccs1	inconclusive: -28.4%	–
COc1cc(C(=O)NCCOc2ccc(Cl)cc2)ccc1OCc1c(C)noc1C	–	inconclusive: 18.4 µM [activator, partial curve, poor fit]
CCN(CC)S(=O)(=O)c1cc([N+](=O)[O-])ccc1NNC(=O)Nc1ccccc1	inconclusive: 10.8%	–
O=C1C(Cl)=C(NCCCN2CCOCC2)C(=O)N1CCc1ccccc1	inconclusive: 54.3%	–

SMILES	lipid storage change, negative = inhibition	Potency
COc1ccc2c(c1)[nH]c1c(=O)n(CCc3cnc[nH]3)cnc12	inconclusive: 107%	–
CCn1cc(CNC(=O)/C=C/c2cnn(C)c2)c(C)n1	inconclusive: 0.467%	–
COc1ccc2nc(NC(=O)NC3CCCCC3)sc2c1	inconclusive: 11.8%	–
Cc1nc2ccc(C(C(F)(F)F)(C(F)(F)F)C(F)(F)F)cc2[nH]1	–	inconclusive: 29.1 µM [falling, partial curve, poor fit]
COc1cc(CNC2CCCC2)cc(OC)c1OC	inconclusive: 0.0317%	–
CCOc1cc(-c2noc(CCCC(=O)NC3CCCCC3)n2)ccc1OC	–	inconclusive: 3.66 µM [activator, full curve]
CC12CCC3(CO)COC(c4ccccc4O1)C2C3 (centres undefined)	inconclusive: -36.7%	–
O=C(Nc1ccccc1)N1CCC(C(=O)N2CCN(c3ccccc3F)CC2)CC1	inconclusive: 52.7%	–
CC(C)N(C(=O)CSc1nc2c([nH]1)c(=O)n(C)c(=O)n2C)c1ccccc1	inconclusive: 4.75%	–
CSc1nnc([C@H](C)NC(=O)OC(C)(C)C)o1	inconclusive: 34.4%	–
COc1ccc2nc(SC(C)C(=O)NC3(C#N)CCCCC3)[nH]c2c1 (centres undefined)	inconclusive: -15.9%	–
COc1c(Cl)cc(C(=O)NCc2ccco2)cc1Cl	inconclusive: -37.2%	–
O=C(CSc1ccc2nnc(-c3cccnc3)n2n1)Nc1cccc(F)c1	–	inconclusive: 29.1 µM [falling, single point]
Cc1ccc(NC2SC(=O)N(CC(=O)O)C2=O)cc1 (centres undefined)	–	active: 23.1 µM
C[n+]1ccccc1Nc1cc([N+](=O)[O-])ccc1N	inconclusive: 4.98%	–
COc1cc(OC)cc(C(=O)NC2CCSc3ccccc32)c1 (centres undefined)	inconclusive: 105%	–
Cc1cccc(NC(=O)CSCc2cc(=O)n3c(C)csc3n2)c1C	inconclusive: 38%	–
Cc1cc(C)nc(CCNC(=O)C2CCC(=O)N(Cc3ccccc3F)C2)n1 (centres undefined)	inactive: 17.5%	–
O=C1c2ccccc2C(=O)N1CC#CCN1CCN(C(c2ccccc2)c2ccccc2)CC1	inconclusive: 130%	–
COc1ccc(CCNC(=O)CN2CCN(c3cccc(Cl)c3)CC2)cc1OC	inconclusive: 3.5%	–
O=C(CC1Oc2ccccc2NC1=O)NCCc1ccccc1 (centres undefined)	–	inconclusive: 6.51 µM [activator, single point]
CC(=O)Nc1ccc(S(=O)(=O)N2CCN(c3cc(C)ccc3C)CC2)cc1	inconclusive: 25.3%	–
N/C(=N\OC(=O)c1ccc2c(c1)OCO2)c1ccc([N+](=O)[O-])cc1	inconclusive: -0.378%	–
CCOC(=O)N1CCN(c2cc(C)c(C(C)=O)cc2F)CC1	inconclusive: -42.3%	–
CCOC(=O)c1sc2nccc(OC)c2c1N=CNOC	inconclusive: -16%	–
